About 910 (0.23%) of roughly 390,000 compounds were called active. Inconclusive means that the source gave no clear call. Such entries were picked first, then a sample of the others. Calls follow the shape of the dose curve; as a rule, active = well fitted inhibition curve with a large enough effect; inconclusive = small, poorly fitted or top-dose-only effect; inactive = no such curve, though single readings can be large or run the other way. A potency beside an inconclusive call is a rough fit, not a confirmed value.
Biological target: Ubiquitin carboxyl-terminal hydrolase 1 (Homo sapiens) (UniProt O94782)
Experiment: Inhibitors of USP1/UAF1: Primary Screen; also: nearly all actives have a fitted effect of over 60% in size
Conditions: recombinant USP1/UAF1, Ub-Rhodamine cleavage fluorescence; activity change, negative = inhibition: at 57.1 µM (top of the series)
Method in brief: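 USP1/UAF1 complex (1 nM) preincubated 15 min at room temperature with compound, then Ub-Rho substrate (150 nM final) added. Kinetic fluorescence at 480/540 nm over 6 reads at 60 s intervals; 50 mM HEPES pH 7.8, 0.5 mM EDTA, 0.1 mg/ml BSA, 1 mM TCEP, 0.01% Tween-20.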
% is scaled to controls: 0 for no effect and ±100 for the full control effect; potency is read from the fitted curve at half-maximal effect.

By UniProt entry, the sequences of proteins in these tests, tags left out. Where a name states a change or a piece, a line headed by the entry shows the natural chain unless it says otherwise.
UniProt O94782: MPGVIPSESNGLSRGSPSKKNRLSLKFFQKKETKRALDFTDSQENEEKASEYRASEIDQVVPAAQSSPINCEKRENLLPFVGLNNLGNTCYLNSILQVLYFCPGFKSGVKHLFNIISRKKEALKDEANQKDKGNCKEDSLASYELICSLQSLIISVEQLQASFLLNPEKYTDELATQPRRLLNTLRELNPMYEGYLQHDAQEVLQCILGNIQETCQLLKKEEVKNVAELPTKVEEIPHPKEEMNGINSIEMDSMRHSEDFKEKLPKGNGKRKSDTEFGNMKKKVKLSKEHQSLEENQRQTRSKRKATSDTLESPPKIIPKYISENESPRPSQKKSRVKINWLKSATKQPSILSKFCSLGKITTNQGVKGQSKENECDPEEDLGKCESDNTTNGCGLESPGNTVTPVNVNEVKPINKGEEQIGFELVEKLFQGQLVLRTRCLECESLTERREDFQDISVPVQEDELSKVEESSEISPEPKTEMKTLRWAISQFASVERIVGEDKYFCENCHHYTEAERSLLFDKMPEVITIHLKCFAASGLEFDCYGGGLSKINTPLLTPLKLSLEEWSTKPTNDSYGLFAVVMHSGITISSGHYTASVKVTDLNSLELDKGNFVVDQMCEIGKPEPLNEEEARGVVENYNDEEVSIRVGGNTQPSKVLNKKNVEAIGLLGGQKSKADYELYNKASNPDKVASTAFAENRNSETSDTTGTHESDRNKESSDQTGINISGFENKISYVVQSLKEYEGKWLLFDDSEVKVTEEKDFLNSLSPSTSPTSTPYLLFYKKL

Activity change, negative = inhibition, inconclusive:
Cc1cc(NC(=O)CSc2n[nH]c(-c3ccccc3Br)n2)no1 -27.9% [inhibitor]

Activity change, negative = inhibition, inactive:
CCCCCC(=O)NNC1CC(=O)N(c2ccccc2)C1=O (stereo unspecified) -12.8%
CC(=O)Nc1ccc(S(=O)(=O)N2CCN(CCc3ccccc3)CC2)cc1 -7.41%
CCCCn1c(SCC(N)=O)nc2ccc(N3CCOCC3)cc2c1=O -17.3%
C=CC(n1cncn1)C(O)(c1ccccc1)c1ccccc1 (stereo unspecified) -13.8%
CC1CCC/C(=N/Nc2nc3ccccc3s2)C1 (stereo unspecified) -18.5%
CN(c1cccc(NC(=O)Nc2cccc(Cl)c2)c1)S(C)(=O)=O -11.6%
COc1cc(/C=C2/C(=N)N3C(SC)=NSC3=NC2=O)ccc1OC(=O)c1ccco1 -4.4%
CCCCNCc1cc(Cl)c(OCCC)c(OCC)c1 2.79%
CCc1ccc(NC(=O)CCN2C(=O)c3cccnc3C2=O)cc1 -3.69%
CCc1ccc2nc(N(CCN(C)C)C(=O)c3ccc4ncsc4c3)sc2c1 -18%
COc1ccccc1/C=C1\SC(=S)N(NS(=O)(=O)c2ccccc2)C1=O -3.24%
COc1ccc(C[C@H]2CN3C(=NC[C@@H]3Cc3ccccc3)N2CCNC(=O)c2ccc(C)c(Br)c2)cc1 -27.7%
CCOC(=O)Cc1nnc(Nc2ccc(C)cc2)c2ccccc12 4.52%
O=C(O)c1ccc2nc(-c3ccccc3)sc2c1 -1.58%
Cc1cn(C)c(CC(=O)Nc2ccc(F)cc2Cl)c1C(=O)O -10.1%
Nc1nnc(COc2cccc(C(F)(F)F)c2)s1 -11.2%
CC(C)Cc1nc(C(N)=O)c2[nH]c(=O)n(-c3ccc(F)cc3)c2n1 -0.123%
C/C(=N/N=C/c1ccc(N(C)C)cc1)c1ccccc1 -17.5%

Potency, active:
N#C/C(=C/c1ccc(N2CCCCCC2)o1)c1cccc(F)c1 25.1 µM
O=C(Cn1nc(Cc2ccncc2)c2ccccc2c1=O)N1CCc2ccccc2C1 28.2 µM

Potency, inconclusive:
COc1ccc(C(=O)CSc2nnc(CN3CCCCC3)n2-c2ccc(F)cc2)cc1 3.98 µM [inhibitor, single point]
CC1=CC(C)(C)N2C(=O)C3(C(C#N)=C(N)Oc4cc(O)ccc43)c3cccc1c32 (stereo unspecified) 31.6 µM [inhibitor, single point]
COc1ccc(CCNc2oc(Cc3cccc4ccccc34)nc2C#N)cc1OC 39.8 µM [inhibitor, partial curve]
CC1CC1c1ccc(/C=C(\C#N)C(=O)Nc2ccc(Cl)cc2Cl)o1 (stereo unspecified) 5.62 µM [inhibitor, full curve, poor fit]
CN(C)c1ncnc2c1ncn2C1CCCO1 (stereo unspecified) 5.01 µM [inhibitor, partial curve]
COc1ccc(S(=O)(=O)N(C)C)cc1NC(=O)CSc1ncccn1 8.91 µM [inhibitor, single point]
CCN1C(=O)[C@@H]2[C@@H](c3ccc(-c4ccc(OC)cc4)c(OC)c3)N3CCCC[C@@]3(C(=O)OC)[C@@H]2C1=O 28.2 µM [inhibitor, single point]
CCOc1ccc(NC(=O)c2cnc3sc(N4CCOCC4)nn3c2=O)cc1 0.708 µM [inhibitor, full curve, poor fit]
COc1cccc(N2CC(NC(=O)COc3ccccc3F)CC2=O)c1 (stereo unspecified) 14.1 µM [inhibitor, partial curve]
Cc1ccc(CNc2ccc3nnc(-c4ccccc4)n3n2)cc1 7.08 µM [inhibitor, partial curve, poor fit]
CCCCc1ccc(NC(=O)CSc2nc(=O)[nH]c3c2CCCC3)cc1 8.91 µM [inhibitor, full curve, poor fit]
CCOC(=O)c1ccc(NC(=O)c2oc3c(c2C)-c2nn(Cc4ccccc4Cl)cc2CC3)cc1 4.47 µM [inhibitor, single point]
Cc1c(C(C)(C)O)[nH]c2ccc(C(F)(F)F)cc12 0.251 µM [inhibitor, full curve, poor fit]
Cc1cc(C)n2nc(SCC(=O)N3CCCC3)nc2n1 7.94 µM [inhibitor, partial curve, poor fit]
COc1cc2c(cc1NC(=O)c1ccccc1C)n(C)c(=O)n2C 7.94 µM [inhibitor, single point]
CCOC(=O)N1C(=O)[C@](c2ccc(Cl)cc2)(C(C)C)N1C(=O)OCC 39.8 µM [inhibitor, partial curve, poor fit]
CN(C)c1ccc(/C=C(/NC(=O)c2ccccc2)C(=O)NCCCn2ccnc2)cc1 2.82 µM [inhibitor, full curve, poor fit]
Cc1ccc(NC(=O)Cc2ccccc2F)cc1S(=O)(=O)N1CCCCCC1 8.91 µM [inhibitor, full curve, poor fit]
O=C(Nc1ccccc1Cl)[C@H](CSCc1ccccc1)N1Cc2ccccc2C1=O 126 µM [inhibitor, partial curve, poor fit]
N#CCC(=O)N/N=C/c1ccc(N2N=C(c3ccccc3)CC2c2ccccc2)cc1 (stereo unspecified) 5.01 µM [inhibitor, partial curve, poor fit]
COc1cccc(NC(C)(C)c2nnnn2-c2c(C)cccc2C)c1 7.94 µM [inhibitor, single point]
COc1ccc(-n2nc(C(=O)Nc3ccc(C(C)=O)cc3)nc2-c2ccccc2)cc1 79.4 µM [inhibitor, partial curve, poor fit]
Cc1cc(-c2ccc(S(=O)(=O)Nc3ccc(Cl)cc3)cc2)on1 0.199 µM [inhibitor, full curve, poor fit]
Cc1[nH]c2ccccc2c1C1(O)C(=O)N(Cc2ccccc2)c2ccc(Cl)cc21 (stereo unspecified) 112 µM [inhibitor, partial curve, poor fit]
CC(C)Cc1[nH]c(=O)c(C#N)c2c1CCCC2 17.8 µM [inhibitor, partial curve]
COc1ccc(NC(=S)Nc2ncccc2C)c(OC)c1 0.891 µM [inhibitor, full curve, poor fit]
O=S(=O)(c1ccc(Cl)cc1)c1nc(-c2cccs2)oc1SCc1ccccc1F 50.1 µM [inhibitor, partial curve, poor fit]
COc1ccc(-c2nnc(SCCOc3ccccc3C)o2)cc1OC 50.1 µM [inhibitor, partial curve, poor fit]
O=C(Cc1ccc(S(=O)(=O)N2CCOCC2)s1)N1CCN(S(=O)(=O)c2ccc(Cl)cc2)CC1 56.2 µM [inhibitor, partial curve, poor fit]
COc1ccc(N2CCN(C(=O)C(C)n3nc(C)c4sc5ccccc5c4c3=O)CC2)cc1 (stereo unspecified) 0.794 µM [inhibitor, full curve, poor fit]
Clc1ccc(CCNC(c2ccc(Cl)cc2)c2nnc(-c3ccccc3)o2)cc1 (stereo unspecified) 3.55 µM [inhibitor, full curve, poor fit]
CC(C)S(=O)(=O)c1nsc2nc(=O)c(/C=C3\C=Nc4ccccc43)c(N)n12 39.8 µM [inhibitor, partial curve]
Cc1ccc(S(=O)(=O)N2CCCc3cc(NC(=O)c4ccccc4Cl)ccc32)cc1 50.1 µM [inhibitor, single point]
CCNC(=O)CN1C(=O)NC(Cc2ccccc2)(Cc2ccccc2)C1=O 6.31 µM [inhibitor, partial curve]
Cc1ccc(S(=O)(=O)Nc2ccc(NC(=O)CN3CCCCC3)c(Cl)c2)cc1 50.1 µM [inhibitor, partial curve]
CCn1cc(C=C2C(=O)c3ccccc3C2=O)c2ccccc21 25.1 µM [inhibitor, partial curve]
COc1ccc(C2CC(C(F)(F)F)n3ncc(C(=O)Nc4c(C)n(C)n(-c5ccccc5)c4=O)c3N2)cc1 (stereo unspecified) 0.562 µM [inhibitor, partial curve, poor fit]
Cc1cc(SCC(=O)c2cc3ccccc3o2)nc2ccccc12 31.6 µM [inhibitor, single point]
O=C(O)c1cccc(Nc2nc(-c3ccc([N+](=O)[O-])cc3)nc3ccccc23)c1 14.1 µM [inhibitor, partial curve, poor fit]
O=C(Cc1ccccc1Cl)NC1(O)C(=O)c2ccccc2C1=O 4.47 µM [inhibitor, full curve, poor fit]
CCN(CC)C(=O)CSc1nnc2nnc3cc(OC)ccc3n12 35.5 µM [inhibitor, single point]
Cc1cccc(NC(=O)Cn2c(=O)n(CCc3ccccc3)c(=O)c3sc4ccccc4c32)c1 1 µM [inhibitor, full curve]
Cc1cccc(CNC(=O)c2ccc3nc(-c4ccccc4)c(-c4ccccc4)nc3c2)c1 7.08 µM [inhibitor, full curve, poor fit]
CCC(CC)C(=O)Nc1nnc2n1CCS2 200 µM [inhibitor, partial curve, poor fit]
O=C(CCn1cnc(-c2ccccc2)c1-c1ccccc1)N/N=C/c1ccc(O)cc1 11.2 µM [inhibitor, full curve, poor fit]

Not a retest: five of the compounds above.
Potency, inconclusive:
O=C(Cc1ccc(S(=O)(=O)N2CCOCC2)s1)N1CCN(S(=O)(=O)c2ccc(Cl)cc2)CC1 56.2 µM [inhibitor, partial curve, poor fit]
COc1ccc(N2CCN(C(=O)C(C)n3nc(C)c4sc5ccccc5c4c3=O)CC2)cc1 (stereo unspecified) 0.794 µM [inhibitor, full curve, poor fit]
Clc1ccc(CCNC(c2ccc(Cl)cc2)c2nnc(-c3ccccc3)o2)cc1 (stereo unspecified) 3.55 µM [inhibitor, full curve, poor fit]
CC(C)S(=O)(=O)c1nsc2nc(=O)c(/C=C3\C=Nc4ccccc43)c(N)n12 39.8 µM [inhibitor, partial curve]
Cc1ccc(S(=O)(=O)N2CCCc3cc(NC(=O)c4ccccc4Cl)ccc32)cc1 50.1 µM [inhibitor, single point]

Source: PubChem BioAssay AID743255 (National Center for Advancing Translational Sciences (NCATS), 2014)
